The values below come from article PMC8938454.

The chains behind the UniProt entries cited, without tags or fusion partners.
UniProt Q14204: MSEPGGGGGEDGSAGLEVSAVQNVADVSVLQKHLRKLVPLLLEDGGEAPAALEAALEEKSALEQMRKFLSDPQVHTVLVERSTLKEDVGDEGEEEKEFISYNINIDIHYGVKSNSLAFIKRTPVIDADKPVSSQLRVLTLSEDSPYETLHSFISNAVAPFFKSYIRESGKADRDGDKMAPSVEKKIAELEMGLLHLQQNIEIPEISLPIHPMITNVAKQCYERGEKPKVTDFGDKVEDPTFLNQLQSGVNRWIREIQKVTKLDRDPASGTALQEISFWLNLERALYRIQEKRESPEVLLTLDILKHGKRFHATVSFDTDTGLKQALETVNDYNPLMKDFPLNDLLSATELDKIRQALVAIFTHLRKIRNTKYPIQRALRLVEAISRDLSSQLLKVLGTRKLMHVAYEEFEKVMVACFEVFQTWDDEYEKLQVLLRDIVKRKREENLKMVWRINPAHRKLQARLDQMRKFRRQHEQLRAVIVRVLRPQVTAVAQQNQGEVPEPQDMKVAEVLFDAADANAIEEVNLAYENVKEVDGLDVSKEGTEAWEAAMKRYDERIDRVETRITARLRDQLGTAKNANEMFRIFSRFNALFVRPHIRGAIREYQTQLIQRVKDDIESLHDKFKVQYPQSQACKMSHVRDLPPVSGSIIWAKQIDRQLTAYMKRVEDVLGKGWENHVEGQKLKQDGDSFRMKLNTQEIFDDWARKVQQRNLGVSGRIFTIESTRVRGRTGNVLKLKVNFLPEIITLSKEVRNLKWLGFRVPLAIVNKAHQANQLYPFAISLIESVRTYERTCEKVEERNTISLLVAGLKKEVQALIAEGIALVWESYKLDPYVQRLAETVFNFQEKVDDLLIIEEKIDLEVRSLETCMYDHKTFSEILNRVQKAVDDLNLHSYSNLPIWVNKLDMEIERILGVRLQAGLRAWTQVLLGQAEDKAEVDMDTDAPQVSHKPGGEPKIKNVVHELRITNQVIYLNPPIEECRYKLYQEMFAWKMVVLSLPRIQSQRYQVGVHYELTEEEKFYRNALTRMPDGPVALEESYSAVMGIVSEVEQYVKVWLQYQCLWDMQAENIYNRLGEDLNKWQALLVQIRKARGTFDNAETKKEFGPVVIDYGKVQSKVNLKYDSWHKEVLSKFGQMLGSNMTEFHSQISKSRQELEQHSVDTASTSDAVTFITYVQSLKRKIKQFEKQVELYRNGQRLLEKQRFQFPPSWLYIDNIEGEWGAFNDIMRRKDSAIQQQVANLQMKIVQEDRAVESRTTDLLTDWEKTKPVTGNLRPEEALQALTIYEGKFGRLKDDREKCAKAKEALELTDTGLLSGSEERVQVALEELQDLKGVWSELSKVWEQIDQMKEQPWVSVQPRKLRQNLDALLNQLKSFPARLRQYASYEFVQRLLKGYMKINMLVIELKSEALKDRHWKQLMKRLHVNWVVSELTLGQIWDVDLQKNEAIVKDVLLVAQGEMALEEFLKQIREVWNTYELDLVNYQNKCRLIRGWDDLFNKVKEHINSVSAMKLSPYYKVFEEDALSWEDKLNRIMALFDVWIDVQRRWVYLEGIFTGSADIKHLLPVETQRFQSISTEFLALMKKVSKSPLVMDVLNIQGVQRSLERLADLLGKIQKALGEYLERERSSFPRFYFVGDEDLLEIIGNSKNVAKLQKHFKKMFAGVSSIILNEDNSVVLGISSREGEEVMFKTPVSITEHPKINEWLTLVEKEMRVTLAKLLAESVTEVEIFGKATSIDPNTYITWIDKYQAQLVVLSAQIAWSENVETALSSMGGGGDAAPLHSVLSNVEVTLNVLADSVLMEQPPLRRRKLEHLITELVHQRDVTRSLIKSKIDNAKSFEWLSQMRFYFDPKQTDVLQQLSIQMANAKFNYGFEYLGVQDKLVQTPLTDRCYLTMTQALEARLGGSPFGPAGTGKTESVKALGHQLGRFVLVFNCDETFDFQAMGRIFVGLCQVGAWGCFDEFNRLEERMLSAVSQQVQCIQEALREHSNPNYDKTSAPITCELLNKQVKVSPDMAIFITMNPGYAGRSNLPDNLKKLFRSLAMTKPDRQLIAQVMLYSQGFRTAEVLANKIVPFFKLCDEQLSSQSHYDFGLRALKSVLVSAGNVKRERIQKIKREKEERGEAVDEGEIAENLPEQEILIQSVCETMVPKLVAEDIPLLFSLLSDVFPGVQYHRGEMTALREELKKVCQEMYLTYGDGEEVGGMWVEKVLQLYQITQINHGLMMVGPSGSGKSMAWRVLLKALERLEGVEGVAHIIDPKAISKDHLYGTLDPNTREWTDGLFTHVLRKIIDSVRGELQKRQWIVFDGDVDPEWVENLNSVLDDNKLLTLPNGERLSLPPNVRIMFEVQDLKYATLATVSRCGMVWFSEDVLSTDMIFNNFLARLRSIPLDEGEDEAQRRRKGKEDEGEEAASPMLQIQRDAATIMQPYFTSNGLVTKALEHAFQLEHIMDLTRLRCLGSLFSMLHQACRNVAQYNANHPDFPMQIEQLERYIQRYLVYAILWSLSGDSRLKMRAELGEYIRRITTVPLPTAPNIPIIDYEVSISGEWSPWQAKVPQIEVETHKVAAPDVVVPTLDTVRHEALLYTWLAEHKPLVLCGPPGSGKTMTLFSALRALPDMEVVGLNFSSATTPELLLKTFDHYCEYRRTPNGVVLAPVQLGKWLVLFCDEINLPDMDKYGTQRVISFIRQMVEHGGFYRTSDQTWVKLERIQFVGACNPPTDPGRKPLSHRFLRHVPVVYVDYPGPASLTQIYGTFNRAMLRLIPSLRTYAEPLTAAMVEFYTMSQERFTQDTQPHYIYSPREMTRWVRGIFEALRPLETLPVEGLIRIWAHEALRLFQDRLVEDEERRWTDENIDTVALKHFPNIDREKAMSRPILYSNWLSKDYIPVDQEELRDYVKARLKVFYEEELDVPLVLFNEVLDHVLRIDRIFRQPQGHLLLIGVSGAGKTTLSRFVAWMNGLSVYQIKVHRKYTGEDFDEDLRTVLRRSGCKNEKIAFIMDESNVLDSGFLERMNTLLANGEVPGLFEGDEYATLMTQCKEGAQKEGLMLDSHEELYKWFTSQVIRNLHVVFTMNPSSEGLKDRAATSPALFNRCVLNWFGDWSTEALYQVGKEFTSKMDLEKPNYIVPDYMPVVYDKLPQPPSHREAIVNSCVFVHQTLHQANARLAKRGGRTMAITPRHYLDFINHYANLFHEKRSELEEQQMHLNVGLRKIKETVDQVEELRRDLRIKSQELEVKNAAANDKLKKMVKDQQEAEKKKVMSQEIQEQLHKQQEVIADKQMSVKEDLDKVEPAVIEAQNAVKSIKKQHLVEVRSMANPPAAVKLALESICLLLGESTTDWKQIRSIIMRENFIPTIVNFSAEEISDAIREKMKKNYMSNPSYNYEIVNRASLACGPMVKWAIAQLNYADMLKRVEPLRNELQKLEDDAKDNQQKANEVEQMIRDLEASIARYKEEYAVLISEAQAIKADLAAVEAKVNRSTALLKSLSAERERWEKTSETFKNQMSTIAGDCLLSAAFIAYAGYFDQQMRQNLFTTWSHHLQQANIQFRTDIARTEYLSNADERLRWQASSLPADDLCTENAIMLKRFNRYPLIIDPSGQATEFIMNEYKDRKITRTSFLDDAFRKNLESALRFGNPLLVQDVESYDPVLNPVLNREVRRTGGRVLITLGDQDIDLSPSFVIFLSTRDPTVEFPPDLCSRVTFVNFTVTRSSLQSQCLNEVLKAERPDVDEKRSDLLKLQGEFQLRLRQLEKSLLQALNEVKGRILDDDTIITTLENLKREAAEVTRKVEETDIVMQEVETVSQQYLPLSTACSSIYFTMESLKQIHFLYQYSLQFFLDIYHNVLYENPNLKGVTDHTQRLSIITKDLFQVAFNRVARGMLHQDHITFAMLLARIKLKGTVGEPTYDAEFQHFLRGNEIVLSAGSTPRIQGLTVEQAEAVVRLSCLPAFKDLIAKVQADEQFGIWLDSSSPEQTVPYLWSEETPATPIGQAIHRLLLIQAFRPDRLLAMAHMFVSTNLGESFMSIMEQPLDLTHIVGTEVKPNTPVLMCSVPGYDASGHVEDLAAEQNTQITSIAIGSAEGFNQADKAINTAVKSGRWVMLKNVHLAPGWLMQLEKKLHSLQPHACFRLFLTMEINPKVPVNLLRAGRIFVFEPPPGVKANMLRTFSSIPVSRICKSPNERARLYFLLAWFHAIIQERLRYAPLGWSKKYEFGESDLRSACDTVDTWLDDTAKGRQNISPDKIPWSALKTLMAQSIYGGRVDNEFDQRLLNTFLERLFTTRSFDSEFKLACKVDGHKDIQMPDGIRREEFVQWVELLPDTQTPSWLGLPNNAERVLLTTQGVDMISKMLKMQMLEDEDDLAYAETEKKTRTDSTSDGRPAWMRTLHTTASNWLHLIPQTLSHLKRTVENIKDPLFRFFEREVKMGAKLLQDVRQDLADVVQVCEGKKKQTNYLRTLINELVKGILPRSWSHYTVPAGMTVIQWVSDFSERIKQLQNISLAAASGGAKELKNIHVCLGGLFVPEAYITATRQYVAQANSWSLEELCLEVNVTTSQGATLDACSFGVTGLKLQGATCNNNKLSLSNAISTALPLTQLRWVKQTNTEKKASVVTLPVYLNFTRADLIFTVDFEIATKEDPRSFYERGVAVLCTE

No constants are given. Whether binding was seen depends on the method and setting. Binding seen in cells or lysates may run through a third protein. Here binding means that the protein was enriched with, or labelled near, the bait; the list need not be complete. Where a sequence is shown, tags or fusion partners need not be part of it.

Sequences and labels used below:
T1: GST-tagged-RUFY3 (WT) (human) (UniProt Q7L099)
T1 sequence: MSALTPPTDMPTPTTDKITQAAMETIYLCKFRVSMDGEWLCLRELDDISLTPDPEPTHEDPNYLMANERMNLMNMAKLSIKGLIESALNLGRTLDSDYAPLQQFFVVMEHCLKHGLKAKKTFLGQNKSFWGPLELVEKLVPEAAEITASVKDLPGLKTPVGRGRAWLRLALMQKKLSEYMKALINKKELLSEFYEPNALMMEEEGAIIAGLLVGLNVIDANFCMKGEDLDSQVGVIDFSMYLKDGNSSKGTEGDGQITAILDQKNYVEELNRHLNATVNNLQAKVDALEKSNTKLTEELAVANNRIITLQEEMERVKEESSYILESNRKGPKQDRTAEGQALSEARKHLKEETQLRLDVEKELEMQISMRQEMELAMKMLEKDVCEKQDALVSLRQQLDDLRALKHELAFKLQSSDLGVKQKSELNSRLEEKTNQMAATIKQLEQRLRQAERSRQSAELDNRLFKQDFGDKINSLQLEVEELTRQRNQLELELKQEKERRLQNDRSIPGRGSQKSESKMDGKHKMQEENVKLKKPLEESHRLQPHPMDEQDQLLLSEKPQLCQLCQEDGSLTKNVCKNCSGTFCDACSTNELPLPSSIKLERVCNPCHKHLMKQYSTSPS

B1: JIP4/SPAG9 scaffolding protein, endogenous in HEK293T (protein, UniProt O60271 1-1321)
chain: MELEDGVVYQEEPGGSGAVMSERVSGLAGSIYREFERLIGRYDEEVVKELMPLVVAVLENLDSVFAQDQEHQVELELLRDDNEQLITQYEREKALRKHAEEKFIEFEDSQEQEKKDLQTRVESLESQTRQLELKAKNYADQISRLEEREAELKKEYNALHQRHTEMIHNYMEHLERTKLHQLSGSDQLESTAHSRIRKERPISLGIFPLPAGDGLLTPDAQKGGETPGSEQWKFQELSQPRSHTSLKVSNSPEPQKAVEQEDELSDVSQGGSKATTPASTANSDVATIPTDTPLKEENEGFVKVTDAPNKSEISKHIEVQVAQETRNVSTGSAENEEKSEVQAIIESTPELDMDKDLSGYKGSSTPTKGIENKAFDRNTESLFEELSSAGSGLIGDVDEGADLLGMGREVENLILENTQLLETKNALNIVKNDLIAKVDELTCEKDVLQGELEAVKQAKLKLEEKNRELEEELRKARAEAEDARQKAKDDDDSDIPTAQRKRFTRVEMARVLMERNQYKERLMELQEAVRWTEMIRASRENPAMQEKKRSSIWQFFSRLFSSSSNTTKKPEPPVNLKYNAPTSHVTPSVKKRSSTLSQLPGDKSKAFDFLSEETEASLASRREQKREQYRQVKAHVQKEDGRVQAFGWSLPQKYKQVTNGQGENKMKNLPVPVYLRPLDEKDTSMKLWCAVGVNLSGGKTRDGGSVVGASVFYKDVAGLDTEGSKQRSASQSSLDKLDQELKEQQKELKNQEELSSLVWICTSTHSATKVLIIDAVQPGNILDSFTVCNSHVLCIASVPGARETDYPAGEDLSESGQVDKASLCGSMTSNSSAETDSLLGGITVVGCSAEGVTGAATSPSTNGASPVMDKPPEMEAENSEVDENVPTAEEATEATEGNAGSAEDTVDISQTGVYTEHVFTDPLGVQIPEDLSPVYQSSNDSDAYKDQISVLPNEQDLVREEAQKMSSLLPTMWLGAQNGCLYVHSSVAQWRKCLHSIKLKDSILSIVHVKGIVLVALADGTLAIFHRGVDGQWDLSNYHLLDLGRPHHSIRCMTVVHDKVWCGYRNKIYVVQPKAMKIEKSFDAHPRKESQVRQLAWVGDGVWVSIRLDSTLRLYHAHTYQHLQDVDIEPYVSKMLGTGKLGFSFVRITALMVSCNRLWVGTGNGVIISIPLTETNKTSGVPGNRPGSVIRVYGDENSDKVTPGTFIPYCSMAHAQLCFHGHRDAVKFFVAVPGQVISPQSSSSGTDLTGDKAGPSAQEPGSQTPLKSMLVISGGEGYIDFRMGDEGGESELLGEDLPLEPSVTKAERSHLIVWQVMYGNE

For the assay, the target named is T1, GST-tagged-RUFY3 (WT) (human). As to the kind of experiment: affinity purification with mass spectrometry; recombinant GST-RUFY3 (GST-only as control) on glutathione resin incubated with HEK293T lysates; Coomassie bands specific for GST-RUFY3 cut out and identified; only the target purified.
Consider “dynactin 1/p150glued (DCTN1), endogenous in HEK293T (from UniProt Q14203-1 1-1278)”, for which the binding result is on record as “binds”.

Consider “cytoplasmic dynein heavy chain (DYNC1H1/DHC), endogenous in HEK293T (from UniProt Q14204 1-4646)”, for which the binding result is “binds”.

With B1, the binding result was “binds”.
